# PubChem BioAssay AID493246, Drosophila RNAi Screening Center, 2011
# Screen: 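Genome-wide search for dsRNAs that reduce cell number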 (primary screen)
# System: Drosophila Kc and S2R+ cells
# Knock-down reagent: long dsRNA against Drosophila genes
# Measured: 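Cell number per well after knock-down, printed as raw plate values; calls were based on per-plate z-scores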
# Direction: Kc cell number and S2R+ cell number: higher = more cells remaining
# Active means: 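Active when the per-plate z-score of cell number is 3 or more in the direction of fewer cells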
# The deposit covers about 21,000 reagents; this is a random part of those with a known target gene and a result. In the full data, 429 (2%) are marked active. 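Values are raw and not normalised between plates; calls rest on per-plate z-scores that were not deposited.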 A number with no mark means an inactive call. No sequences are given here. The record does not give: the amount of reagent, the time to read-out.
target,PubChem SID,"Kc cell number, rep 1","Kc cell number, rep 2","S2R+ cell number, rep 1","S2R+ cell number, rep 2"
CG6380,SID104182742,1.54e6,1.61e6,1.19e6,1.30e6
LRR,SID104186236,1.62e6,1.69e6,1.30e6,1.46e6
CG9328,SID104182995,1.02e6,1.01e6,8.14e5,6.81e5
CG15922,SID104194920,1.32e6,1.49e6,1.06e6,1.13e6
Pfdn2,SID104190410,1.43e6,1.35e6,1.20e6,1.31e6
Sk1,SID104199566,1.56e6,1.52e6,9.46e5,9.91e5
Ptp61F,SID104188475,1.24e6,1.22e6,7.91e5,9.64e5
CG17819,SID104195071,1.38e6,1.55e6,1.01e6,1.06e6
CG7896,SID104196127,5.01e5,,8.72e5,
Lcp1,SID104187247,1.44e6,1.80e6,1.23e6,1.39e6
obst-A,SID104200335,1.53e6,1.58e6,1.04e6,1.17e6
Cpes,SID104184267,1.35e6,1.38e6,8.44e5,8.53e5
CG30116,SID104185727,1.46e6,1.45e6,1.29e6,1.33e6
CG30116,SID104186477,1.63e6,1.60e6,1.29e6,1.40e6
CG33796,SID104189209,1.60e6,1.84e6,1.13e6,1.32e6
CG33922,SID104179842,1.49e6,1.50e6,1.03e6,1.16e6
Gbeta76C,SID104190966,1.81e6,1.77e6,1.21e6,1.33e6
lush,SID104191156,1.30e6,1.31e6,1.27e6,1.39e6
sn,SID104198626,1.49e6,1.47e6,1.02e6,1.12e6
Pvf2,SID104182075,1.51e6,1.55e6,1.20e6,1.31e6
Proc-R,SID104198202,1.50e6,1.46e6,1.04e6,1.15e6
CG17327,SID104195017,1.19e6,1.23e6,9.05e5,1.09e6
CG6418,SID104190425,1.18e6,1.36e6,1.39e6,1.14e6
karr,SID104200473,1.50e6,1.49e6,1.06e6,1.18e6

Part of the list above in another layout:
{"target":"Sk1","PubChem SID":"SID104199566","Kc cell number, rep 1":1.56e6,"Kc cell number, rep 2":1.52e6,"S2R+ cell number, rep 1":9.46e5,"S2R+ cell number, rep 2":9.91e5}
{"target":"Ptp61F","PubChem SID":"SID104188475","Kc cell number, rep 1":1.24e6,"Kc cell number, rep 2":1.22e6,"S2R+ cell number, rep 1":7.91e5,"S2R+ cell number, rep 2":9.64e5}
